Data as given in PubChem BioAssay AID1508597 (Cure First, 2020)

- Test: 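Genes whose silencing sensitises or protects ovarian cancer cells against rucaparib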 (primary screen)
- Cells: human ovarian carcinoma lines grown from tumours: OCI-P5x (papillary serous) and OCI-C5x (clear cell)
- Knock-down reagent: siRNA pool against human genes, 1.25 pmol siRNA per well
- Duration: 72 h or 96 h, depending on the cell culture
- Treatment: rucaparib 20 µM (about IC30) or vehicle, present until read-out
- Rucaparib or vehicle: Vehicle
- Cell line: OCI-C5x (clear cell)
- Detection: 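Luminescent ATP-based viability assay read 72 or 96 h after transfection, depending on culture, given as normalised percent viability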
- Scale: viability, normalised: higher = more viable cells remaining
- Active means: 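Active when normalised viability falls below 80 percent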
- Meaning of the calls: active = viability under 80%; inactive = viability 80% or more
Shown is an unselected part of the about 2,100 reagents, in one setting of the screen. 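Calls flag viability under 80% in either arm, not effects specific to rucaparib; the reference for percent is not stated.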 A number with no mark means an inactive call. Some reagents were tested in more than one well and are listed for each. Not stated in the record: the 100% reference.

{"gene": "DQX1", "technical replicate": "1", "viability, normalised (%)": "45.1 (active)"}
{"gene": "DQX1", "technical replicate": "2", "viability, normalised (%)": "40.1 (active)"}
{"gene": "DQX1", "technical replicate": "3", "viability, normalised (%)": "46.3 (active)"}
{"gene": "WHR1", "technical replicate": "1", "viability, normalised (%)": "44.7 (active)"}
{"gene": "WHR1", "technical replicate": "2", "viability, normalised (%)": "43 (active)"}
{"gene": "WHR1", "technical replicate": "3", "viability, normalised (%)": "41.9 (active)"}
{"gene": "MKNK1", "technical replicate": "1", "viability, normalised (%)": "64.6 (active)"}
{"gene": "MKNK1", "technical replicate": "2", "viability, normalised (%)": "69 (active)"}
{"gene": "MKNK1", "technical replicate": "3", "viability, normalised (%)": "48.5 (active)"}
{"gene": "TNKS2", "technical replicate": "1", "viability, normalised (%)": "57.1 (active)"}
{"gene": "TNKS2", "technical replicate": "1", "viability, normalised (%)": "25.1 (active)"}
{"gene": "TNKS2", "technical replicate": "2", "viability, normalised (%)": "72.5 (active)"}
{"gene": "TNKS2", "technical replicate": "2", "viability, normalised (%)": "31.8 (active)"}
{"gene": "TNKS2", "technical replicate": "3", "viability, normalised (%)": "29.3 (active)"}
{"gene": "TNKS2", "technical replicate": "3", "viability, normalised (%)": "61.9 (active)"}
{"gene": "MARK3", "technical replicate": "1", "viability, normalised (%)": "58.4 (active)"}
{"gene": "MARK3", "technical replicate": "2", "viability, normalised (%)": "49.8 (active)"}
{"gene": "MARK3", "technical replicate": "3", "viability, normalised (%)": "46.9 (active)"}
{"gene": "PCDHB4", "technical replicate": "1", "viability, normalised (%)": "33.9 (active)"}
{"gene": "PCDHB4", "technical replicate": "2", "viability, normalised (%)": "32.8 (active)"}
{"gene": "PCDHB4", "technical replicate": "3", "viability, normalised (%)": "32.6 (active)"}
{"gene": "STK3", "technical replicate": "1", "viability, normalised (%)": "42.1 (active)"}
{"gene": "STK3", "technical replicate": "2", "viability, normalised (%)": "52.2 (active)"}
{"gene": "STK3", "technical replicate": "3", "viability, normalised (%)": "52.8 (active)"}
{"gene": "MOV10", "technical replicate": "1", "viability, normalised (%)": "45.2 (active)"}
{"gene": "MOV10", "technical replicate": "2", "viability, normalised (%)": "49.3 (active)"}
{"gene": "MOV10", "technical replicate": "3", "viability, normalised (%)": "56.4 (active)"}
{"gene": "CHD5", "technical replicate": "1", "viability, normalised (%)": "45.1 (active)"}
{"gene": "CHD5", "technical replicate": "2", "viability, normalised (%)": "54.4 (active)"}
{"gene": "CHD5", "technical replicate": "3", "viability, normalised (%)": "34.1 (active)"}
{"gene": "POLD3", "technical replicate": "1", "viability, normalised (%)": "45.5 (active)"}
{"gene": "POLD3", "technical replicate": "2", "viability, normalised (%)": "45.4 (active)"}
{"gene": "POLD3", "technical replicate": "3", "viability, normalised (%)": "55.4 (active)"}

Copied from the list:
STK3, technical replicate 3, viability, normalised (%): 52.8 (active)
Result of STK3, technical replicate 1 in “viability, normalised (%)”: 42.1 (active)
CHD5, technical replicate 1, viability, normalised (%): 45.1 (active)
Under “viability, normalised (%)”, PCDHB4, technical replicate 2 has 32.8 (active)
